Experimental data: PubChem BioAssay AID1259254 (NCATS, 2017)

- Test: 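Genome-wide screen for genes that prevent DNA re-replication in cancer cells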 (primary screen)
- System: human HCT116 colorectal cancer cells
- Reagent: single siRNA against human genes
- Timing: 3 days
- Measured: 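Nuclei stained with Hoechst and imaged; cell-cycle phase assigned by DNA content; G2 share scaled per plate, non-targeting siRNA 0%, GMNN siRNA 100%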
- Direction: G2 robust z-score and G2 cells, % of GMNN control: higher = more G2 cells, more excess DNA replication; raw share of cells in G2: higher = larger share of cells with G2 DNA content
- Active means: 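Active siRNAs have a G2 robust z of 5 or more median absolute deviations over the median, which in these data means about 38% or higher of GMNN control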
The deposit covers about 59,000 reagents; shown is a part drawn at random. Over the whole deposit, about 1,550 (2.6%) got an active call. 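G2 share is only a proxy for re-replication; each gene was hit by three separate siRNAs, and active genes were retested.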 The raw values are shown without normalisation. Unmarked entries are inactive. The numbers tell different reagents against one gene apart. Not stated in the record: the amount of reagent.

| gene knocked down | siRNA no. | G2 robust z-score | G2 cells, % of GMNN control | raw share of cells in G2 (%) |
| --- | --- | --- | --- | --- |
| PHAF1 | 1 | -0.272 | 1.06 | 4.88 |
| PHAF1 | 2 | -0.022 | 2.81 | 5.53 |
| PHAF1 | 3 | -1.12 | -4.92 | 1.03 |
| GNRH2 | 1 | 1.31 | 12.2 | 8.01 |
| GNRH2 | 2 | -0.0938 | 2.31 | 6.14 |
| GNRH2 | 3 | 1.31 | 12.2 | 9.65 |
| SLC25A10 | 1 | 2.46 | 20.2 | 12.2 |
| SLC25A10 | 2 | -0.551 | -0.912 | 4.66 |
| SLC25A10 | 3 | -0.604 | -1.28 | 3.66 |
| NFRKB | 1 | -0.789 | -2.59 | 2.34 |
| NFRKB | 2 | 0.165 | 4.13 | 7.11 |
| NFRKB | 3 | 2.23 | 18.7 | 12.6 |
| TCP10L3 | 1 | -1.65 | -8.63 | 1.31 |
| TCP10L3 | 2 | -0.279 | 1 | 4.29 |
| TCP10L3 | 3 | 2.33 | 19.4 | 10.2 |
| GVINP1 | 1 | 0.358 | 5.48 | 5.65 |
| GVINP1 | 2 | -0.268 | 1.08 | 3.88 |
| GVINP1 | 3 | -1.02 | -4.19 | 2.84 |
| TYW1 | 1 | 1.94 | 16.6 | 11.3 |
| TYW1 | 2 | 1.21 | 11.4 | 11.4 |
| TYW1 | 3 | -0.701 | -1.97 | 3.73 |
| IL10RB | 1 | -0.0441 | 2.66 | 6.01 |
| IL10RB | 2 | -0.912 | -3.45 | 4.37 |
| IL10RB | 3 | -0.643 | -1.56 | 3.63 |
| N4BP2L1 | 1 | -1.2 | -5.48 | 1.76 |
| N4BP2L1 | 2 | 9.32 (active) | 68.6 | 24.5 |
| N4BP2L1 | 3 | 0.852 | 8.96 | 5.77 |
| YPEL1 | 1 | -0.944 | -3.67 | 2.09 |
| YPEL1 | 2 | -0.601 | -1.26 | 3.37 |
| YPEL1 | 3 | -0.171 | 1.76 | 5.22 |
